# Screening data, single-dose tests

The chains behind the UniProt entries cited, without tags or fusion partners. Residues count along the entry.
UniProt Q8IDJ8, 1-583: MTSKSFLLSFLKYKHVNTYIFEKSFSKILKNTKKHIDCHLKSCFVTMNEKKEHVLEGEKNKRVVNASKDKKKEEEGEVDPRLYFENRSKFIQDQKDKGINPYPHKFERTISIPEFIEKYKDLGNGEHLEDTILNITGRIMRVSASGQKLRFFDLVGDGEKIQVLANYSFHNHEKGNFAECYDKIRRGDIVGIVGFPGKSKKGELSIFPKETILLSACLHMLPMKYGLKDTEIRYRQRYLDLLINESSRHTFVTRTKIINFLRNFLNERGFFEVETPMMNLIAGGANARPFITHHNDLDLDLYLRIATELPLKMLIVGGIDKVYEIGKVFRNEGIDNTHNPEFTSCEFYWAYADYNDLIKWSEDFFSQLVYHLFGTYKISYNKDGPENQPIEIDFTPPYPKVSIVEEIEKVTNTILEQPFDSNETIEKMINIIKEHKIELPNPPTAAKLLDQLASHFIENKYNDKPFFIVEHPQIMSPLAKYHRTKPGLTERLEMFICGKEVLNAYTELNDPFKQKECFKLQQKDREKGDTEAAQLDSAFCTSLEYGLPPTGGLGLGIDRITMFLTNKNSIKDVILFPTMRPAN
UniProt I6X8D2, whole entry: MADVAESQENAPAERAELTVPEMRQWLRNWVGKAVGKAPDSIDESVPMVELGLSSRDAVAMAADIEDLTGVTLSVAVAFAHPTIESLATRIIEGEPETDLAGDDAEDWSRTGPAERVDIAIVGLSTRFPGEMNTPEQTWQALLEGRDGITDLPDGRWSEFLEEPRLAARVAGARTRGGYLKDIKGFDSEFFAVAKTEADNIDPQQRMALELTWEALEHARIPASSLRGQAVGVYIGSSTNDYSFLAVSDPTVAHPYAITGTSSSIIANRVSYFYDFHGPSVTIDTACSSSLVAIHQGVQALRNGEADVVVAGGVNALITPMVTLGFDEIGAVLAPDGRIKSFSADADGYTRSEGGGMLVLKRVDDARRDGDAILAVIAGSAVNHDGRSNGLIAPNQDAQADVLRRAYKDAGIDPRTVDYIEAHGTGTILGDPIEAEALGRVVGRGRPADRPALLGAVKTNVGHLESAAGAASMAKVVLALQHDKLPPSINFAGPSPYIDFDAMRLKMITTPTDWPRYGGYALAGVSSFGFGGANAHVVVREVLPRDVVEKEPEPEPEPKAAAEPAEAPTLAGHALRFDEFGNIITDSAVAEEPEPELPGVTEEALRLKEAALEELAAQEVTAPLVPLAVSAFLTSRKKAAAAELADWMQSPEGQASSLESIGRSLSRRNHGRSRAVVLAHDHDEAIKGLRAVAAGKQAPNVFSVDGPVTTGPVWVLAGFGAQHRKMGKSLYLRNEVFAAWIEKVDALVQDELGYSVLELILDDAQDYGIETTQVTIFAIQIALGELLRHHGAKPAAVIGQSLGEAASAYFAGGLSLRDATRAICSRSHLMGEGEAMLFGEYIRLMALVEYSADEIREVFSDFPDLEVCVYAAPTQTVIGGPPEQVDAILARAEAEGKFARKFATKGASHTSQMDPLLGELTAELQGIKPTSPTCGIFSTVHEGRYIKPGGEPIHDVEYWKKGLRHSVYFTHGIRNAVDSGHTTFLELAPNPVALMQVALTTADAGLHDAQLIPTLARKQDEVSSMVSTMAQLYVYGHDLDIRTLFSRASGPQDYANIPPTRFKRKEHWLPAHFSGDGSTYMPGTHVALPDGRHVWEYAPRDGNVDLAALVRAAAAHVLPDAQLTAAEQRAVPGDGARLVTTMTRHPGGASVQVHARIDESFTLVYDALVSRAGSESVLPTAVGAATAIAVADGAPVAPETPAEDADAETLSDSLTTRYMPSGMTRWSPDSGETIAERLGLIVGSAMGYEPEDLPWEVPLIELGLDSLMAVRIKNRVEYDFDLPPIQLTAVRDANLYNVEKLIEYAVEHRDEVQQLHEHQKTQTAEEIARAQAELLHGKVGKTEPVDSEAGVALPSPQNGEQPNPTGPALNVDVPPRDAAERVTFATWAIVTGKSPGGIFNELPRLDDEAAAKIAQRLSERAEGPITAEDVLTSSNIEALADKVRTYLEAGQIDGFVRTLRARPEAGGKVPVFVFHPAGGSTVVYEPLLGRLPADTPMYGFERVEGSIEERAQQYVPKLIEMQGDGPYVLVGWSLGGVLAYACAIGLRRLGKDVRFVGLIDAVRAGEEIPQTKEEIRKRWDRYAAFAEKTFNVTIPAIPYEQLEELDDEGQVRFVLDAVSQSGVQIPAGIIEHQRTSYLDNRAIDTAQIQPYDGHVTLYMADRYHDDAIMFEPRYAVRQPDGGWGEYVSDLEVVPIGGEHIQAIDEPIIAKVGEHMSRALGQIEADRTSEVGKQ
UniProt P9WPC5, whole entry: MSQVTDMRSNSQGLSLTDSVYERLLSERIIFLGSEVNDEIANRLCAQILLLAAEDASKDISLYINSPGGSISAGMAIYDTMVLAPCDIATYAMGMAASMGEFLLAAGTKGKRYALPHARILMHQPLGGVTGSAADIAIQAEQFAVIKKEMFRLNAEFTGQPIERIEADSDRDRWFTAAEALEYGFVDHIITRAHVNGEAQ
UniProt P9WPC3, whole entry partner: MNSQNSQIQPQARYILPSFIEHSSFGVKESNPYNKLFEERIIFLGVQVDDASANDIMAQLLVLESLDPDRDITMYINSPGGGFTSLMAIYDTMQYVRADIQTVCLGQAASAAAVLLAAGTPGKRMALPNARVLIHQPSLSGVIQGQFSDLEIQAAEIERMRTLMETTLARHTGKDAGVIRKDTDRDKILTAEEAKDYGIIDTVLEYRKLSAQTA

A: 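Enzyme assay of the cytosolic lysyl-tRNA synthetase in 384-well plates, read by luminescence. Target: Lysine-tRNA ligase, Plasmodium falciparum 3D7 (UniProt Q8IDJ8). Concentration: 30 µM. Higher reads as stronger inhibition, judged from the few compounds that gave an IC50. Of about 69,000 compounds tested this way, about 49 (0.071%) reached 50% or more in at least one test.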
B: 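Enzyme assay of the thioesterase domain of polyketide synthase 13; the read-out is not stated. Target: Polyketide synthase Pks13, Mycobacterium tuberculosis (UniProt I6X8D2). Concentration: 30 µM. The record gives no direction; the compounds picked for IC50 retests had high values, so higher reads as stronger inhibition. Of about 67,000 compounds tested this way, about 300 (0.46%) reached 50% or more in at least one test.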
C: 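ClpP1P2, Mycobacterium tuberculosis (UniProt P9WPC5 and UniProt P9WPC3). Protease assay of ClpP1P2, read by the AMC dye that it sets free. Concentration: 50 µM. Direction is inferred from only a few compounds that gave an IC50; most scored high, so higher reads as stronger inhibition. Most other retested compounds had strongly negative values. Size under these conditions: about 69,000 compounds, about 10 of them at 50% or above in at least one test.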

Each number is a percent effect as filed. The controls that fix the scale are not given in the record; negative values are as filed. The compounds are a random part of those screened.

compound: Nc1cc(C(=O)NCC2CCN(Cc3ccncc3F)C2)ccn1 (stereo unspecified)
A: 0.6059
B: 140.8
C: -9.24

compound: CCN(Cc1ncc(C(C)(C)C)o1)Cc1ccccc1C
A: -3.619
B: 15.47
C: 4.215

compound: O=C(Cc1ccc(F)cc1F)NCC(=O)Nc1ccccn1
A: 1.257
B: -12.39
C: -0.7893

compound: CC(C)c1nccn1C1CCCN(C(=O)CCCc2ccccn2)C1 (stereo unspecified)
A: 3.506
B: -3.409
C: 5.891

compound: CN(Cc1cccnc1)[C@@H]1CN(C(=O)CC2CC2)[C@@H]2CCCO[C@H]12
A: 2.43
B: -5.778
C: -8.905

compound: c1cnnc(N2CCCC(NCc3ccncc3)C2)c1 (stereo unspecified)
A: 25.21
B: -19.84
C: 11.17

compound: Cc1ccc(N2CCCC(NCc3nnc4n3CCCC4)C2=O)cc1 (stereo unspecified)
A: 3.376
B: -25.7
C: -49.88

compound: CC(=O)NCC1CCN(c2cc(C(C)C)nc3ccnn23)CC1
A: 4.816
B: 29.8
C: -4.056

compound: Fc1ccc(CN2CCO[C@H]3[C@H](OCC4CC4)CC[C@@H]32)cc1
A: 0.1661
B: -2.095
C: -7.264

compound: COCCOCCSc1nnc(Cc2ccccc2F)o1
A: 2.222
B: -27.34
C: -11.66

compound: CC(Cc1cn(CCc2nc(N)cc(O)n2)nn1)c1ccccc1 (stereo unspecified)
A: 5.868
B: -20.92
C: -2.709

compound: Cn1ccc(C(=O)N2CCCC2c2[nH]ncc2C(N)=O)n1 (stereo unspecified)
A: -0.9601
B: -8.11
C: 3.626

compound: O=c1c2sccc2nc2n1CCN(Cc1cccs1)CC2
A: 1.63
B: -32.38
C: -2.956

compound: Cc1nnc(N2CCOC(CN(C)C)C2)c(C#N)c1C (stereo unspecified)
A: 0.2572
B: -7.298
C: -16.49

compound: Cc1cc2nc(SCC(=O)N3CCCC3)n(C(C)C)c(=O)c2[nH]1
A: -1.776
B: -28.79
C: 6.742

compound: N#Cc1cc(S(N)(=O)=O)ccc1NC1CCc2ccc(F)cc21 (stereo unspecified)
A: 12.71
B: 6.538
C: 8.408

compound: Cn1ncc2c1C(COCC1CC1)CN(Cc1ccsc1)C2 (stereo unspecified)
A: 1.597
B: -8.759
C: -29.92

compound: O=C(NCCCc1ccc(O)cc1)C1(O)Cc2ccccc2C1
A: 2.521
B: -26.8
C: 4.878

compound: CC(C)CCC(=O)N1C[C@H]2CCN[C@H]2C1
A: 4.912
B: -2.636
C: -4.71

compound: O=C(CN1CCOC(Cn2cccn2)C1)NCCc1ccc(F)cc1 (stereo unspecified)
A: 5.929
B: -9.785
C: 7.564

compound: Cc1oc(C(=O)Nc2ccccc2F)cc1S(N)(=O)=O
A: 3.356
B: -10.57
C: -3.942

compound: CN(C)c1ccc(C(=O)N2CCCN(C3CCCCC3)CC2)cn1
A: 4.528
B: -14.32
C: -1.879

compound: CNC(=O)Cc1ccc(-n2ccnc2-c2cccc(C(=O)O)c2)cc1
A: 7.917
B: 12.42
C: -18.04

compound: CC(C)(C)SCC(=O)Nc1cc(-n2nnnc2C2CC2)ccc1F
A: 4.736
B: 27.55
C: -8.095

compound: O=C(N[C@@H]1CN(c2ncccn2)C[C@@H]2CCCO[C@@H]21)c1ccncc1
A: 13.54
B: -13.68
C: 2.321

compound: CCOCCCNC(=O)c1nnn(Cc2ccccc2)c1OC
A: 2.268
B: -23.9
C: -3.599

compound: Cc1nc(C)n(CC2CN(CCOCC(F)(F)F)CCO2)n1 (stereo unspecified)
A: 1.376
B: -4.076
C: -10.72

compound: CCn1cc(CN2C[C@H]3CC[C@@H]2CN(C(=O)c2cnccn2)C3)cn1
A: 7.935
B: -7.678
C: -0.3433

compound: Cc1cc2nc(SCC(=O)N3CCOCC3)n(CCC(C)C)c(=O)c2[nH]1
A: 3.978
B: 11.34
C: 7.592

compound: O=S(=O)(C1CC1)N1CCC2(CC1)COC(COc1cccnc1)C2 (stereo unspecified)
A: -2.304
B: 3.082
C: -0.2034

compound: CCc1nncn1CCNC(=O)N1CCN(Cc2ccccc2)CC1
A: -0.1084
B: -15.33
C: -8.79

compound: O=C(Nc1ccnn1Cc1ccc(Cl)cc1)C1CCS(=O)(=O)C1 (stereo unspecified)
A: -2.189
B: 14.77
C: 8.336

compound: CSc1ccc(NC(=O)Nc2ccc3c(c2)N(S(C)(=O)=O)CC3)cc1
A: 0.4042
B: 14.42
C: -0.8213

compound: O=C(c1ccsc1)N1C[C@@H](CN2CCCC2)[C@@H](CO)C1
A: 1.691
B: -17.65
C: -10.26

Repeated from the top, 3 entries:

| compound | A | B | C |
|---|---|---|---|
| `Nc1cc(C(=O)NCC2CCN(Cc3ccncc3F)C2)ccn1` (stereo unspecified) | 0.6059 | 140.8 | -9.24 |
| `CCN(Cc1ncc(C(C)(C)C)o1)Cc1ccccc1C` | -3.619 | 15.47 | 4.215 |
| `O=C(Cc1ccc(F)cc1F)NCC(=O)Nc1ccccn1` | 1.257 | -12.39 | -0.7893 |

Data taken from ChEMBL document CHEMBL3988442, “University of Dundee, Small-Polar-MMV Screening Library” (2021).